In the assay the target is T1, biotinylated HEG1 cytoplasmic tail (a.a. 1274-1381) (UniProt Q9ULI3).
T1 sequence (chain, biotin on the in vivo biotinylation peptide tag): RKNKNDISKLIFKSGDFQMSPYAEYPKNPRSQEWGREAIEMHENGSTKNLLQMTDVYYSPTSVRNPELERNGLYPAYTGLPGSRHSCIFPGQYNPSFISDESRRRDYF
The assay is described as follows: flow cytometry on beads.

Protein sequences, listed by entry. Tags and fused reporters are not part of them. Residues count along the entry.
UniProt O00522, residues 417-736: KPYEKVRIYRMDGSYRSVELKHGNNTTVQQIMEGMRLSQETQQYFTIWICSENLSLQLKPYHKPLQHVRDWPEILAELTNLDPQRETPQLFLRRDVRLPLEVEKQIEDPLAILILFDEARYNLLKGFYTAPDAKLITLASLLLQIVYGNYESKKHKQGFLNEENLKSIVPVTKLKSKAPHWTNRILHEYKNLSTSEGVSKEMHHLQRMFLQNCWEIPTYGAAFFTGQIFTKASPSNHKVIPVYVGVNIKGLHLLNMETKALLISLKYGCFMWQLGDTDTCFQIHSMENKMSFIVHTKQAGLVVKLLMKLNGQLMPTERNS

Results are given in words; binding and its absence hold for the method and conditions named. Some binding calls cover weakened binding; strength is not graded here.

For “His6-EGFP-KRIT1(WT) FERM domain (417-736) (from UniProt O00522 417-736) (domain or fragment)”, the binding entry is “binds”.

For the origin of these results see paper doi:10.1101/744821.
